Data reported in the supplement of paper PMC10849652.
The list shows a part of the results.

Chains of the proteins cited; added tags and fusions are not shown. Lines headed by an entry give the natural chain unless they say otherwise; changes in a name come on top.
UniProt P83436: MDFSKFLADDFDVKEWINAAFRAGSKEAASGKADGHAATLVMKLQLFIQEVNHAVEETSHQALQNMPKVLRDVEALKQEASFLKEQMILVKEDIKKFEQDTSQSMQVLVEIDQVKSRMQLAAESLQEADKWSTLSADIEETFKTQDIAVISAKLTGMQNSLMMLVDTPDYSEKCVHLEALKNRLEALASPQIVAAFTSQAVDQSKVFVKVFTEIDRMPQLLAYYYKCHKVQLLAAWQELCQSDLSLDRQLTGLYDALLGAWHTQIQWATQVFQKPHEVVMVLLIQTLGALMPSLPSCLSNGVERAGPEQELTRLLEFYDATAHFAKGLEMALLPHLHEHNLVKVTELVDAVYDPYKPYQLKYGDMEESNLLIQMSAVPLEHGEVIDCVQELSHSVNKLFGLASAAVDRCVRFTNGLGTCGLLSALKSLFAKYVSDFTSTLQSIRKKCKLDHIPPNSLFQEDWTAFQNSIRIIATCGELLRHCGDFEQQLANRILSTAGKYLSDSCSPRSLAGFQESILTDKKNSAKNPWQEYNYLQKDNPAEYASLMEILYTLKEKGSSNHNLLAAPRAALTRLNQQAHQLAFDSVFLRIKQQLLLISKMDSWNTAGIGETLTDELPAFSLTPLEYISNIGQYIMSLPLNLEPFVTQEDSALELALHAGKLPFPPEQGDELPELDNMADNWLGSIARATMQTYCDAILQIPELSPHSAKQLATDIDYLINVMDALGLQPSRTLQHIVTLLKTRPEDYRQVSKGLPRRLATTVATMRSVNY
UniProt Q6PJW8: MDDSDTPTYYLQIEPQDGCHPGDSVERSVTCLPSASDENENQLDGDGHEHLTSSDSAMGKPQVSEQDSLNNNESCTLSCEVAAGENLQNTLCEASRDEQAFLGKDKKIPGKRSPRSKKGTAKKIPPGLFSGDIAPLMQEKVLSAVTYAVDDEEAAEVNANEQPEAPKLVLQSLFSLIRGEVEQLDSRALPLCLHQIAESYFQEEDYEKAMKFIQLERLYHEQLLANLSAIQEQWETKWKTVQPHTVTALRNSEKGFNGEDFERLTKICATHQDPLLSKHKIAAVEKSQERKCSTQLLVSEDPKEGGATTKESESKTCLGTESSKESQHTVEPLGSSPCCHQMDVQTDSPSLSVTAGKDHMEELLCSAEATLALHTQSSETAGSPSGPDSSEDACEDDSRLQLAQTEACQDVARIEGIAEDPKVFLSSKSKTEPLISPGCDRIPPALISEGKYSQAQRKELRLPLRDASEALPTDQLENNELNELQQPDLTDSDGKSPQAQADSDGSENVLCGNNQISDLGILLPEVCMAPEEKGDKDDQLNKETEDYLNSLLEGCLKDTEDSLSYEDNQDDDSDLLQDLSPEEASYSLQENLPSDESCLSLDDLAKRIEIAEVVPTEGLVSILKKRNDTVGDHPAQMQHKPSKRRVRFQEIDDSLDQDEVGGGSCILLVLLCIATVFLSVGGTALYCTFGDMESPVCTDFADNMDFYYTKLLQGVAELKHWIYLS
UniProt P12074, whole entry, looked up: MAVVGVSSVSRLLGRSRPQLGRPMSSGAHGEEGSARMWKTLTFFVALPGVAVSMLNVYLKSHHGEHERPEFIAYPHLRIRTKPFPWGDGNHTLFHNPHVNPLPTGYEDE
UniProt Q9NX08, whole entry, looked up: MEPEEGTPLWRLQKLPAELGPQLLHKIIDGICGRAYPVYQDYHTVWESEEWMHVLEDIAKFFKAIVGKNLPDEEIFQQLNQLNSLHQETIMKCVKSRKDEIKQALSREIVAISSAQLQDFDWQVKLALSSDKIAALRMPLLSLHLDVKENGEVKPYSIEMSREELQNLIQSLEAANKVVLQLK
UniProt O95628: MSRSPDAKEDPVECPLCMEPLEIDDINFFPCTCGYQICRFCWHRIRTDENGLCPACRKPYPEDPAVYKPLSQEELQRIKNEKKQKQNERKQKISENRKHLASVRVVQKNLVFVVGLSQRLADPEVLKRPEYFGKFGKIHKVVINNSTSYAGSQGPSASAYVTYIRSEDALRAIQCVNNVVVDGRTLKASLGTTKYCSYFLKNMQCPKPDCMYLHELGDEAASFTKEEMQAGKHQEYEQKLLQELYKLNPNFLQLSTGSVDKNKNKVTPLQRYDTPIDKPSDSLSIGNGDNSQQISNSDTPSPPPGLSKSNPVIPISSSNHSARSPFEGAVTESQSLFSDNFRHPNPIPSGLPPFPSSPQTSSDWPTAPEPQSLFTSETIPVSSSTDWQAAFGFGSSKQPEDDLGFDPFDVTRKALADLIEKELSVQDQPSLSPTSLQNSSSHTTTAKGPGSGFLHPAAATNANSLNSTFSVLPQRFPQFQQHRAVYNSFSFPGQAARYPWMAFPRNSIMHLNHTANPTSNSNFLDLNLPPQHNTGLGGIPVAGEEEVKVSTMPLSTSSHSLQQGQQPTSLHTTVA
UniProt Q99627: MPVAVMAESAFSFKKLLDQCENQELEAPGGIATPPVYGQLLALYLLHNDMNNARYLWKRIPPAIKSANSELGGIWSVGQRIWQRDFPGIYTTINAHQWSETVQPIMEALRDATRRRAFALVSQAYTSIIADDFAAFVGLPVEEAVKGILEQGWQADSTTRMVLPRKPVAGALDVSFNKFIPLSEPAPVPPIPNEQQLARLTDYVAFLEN
UniProt Q99439: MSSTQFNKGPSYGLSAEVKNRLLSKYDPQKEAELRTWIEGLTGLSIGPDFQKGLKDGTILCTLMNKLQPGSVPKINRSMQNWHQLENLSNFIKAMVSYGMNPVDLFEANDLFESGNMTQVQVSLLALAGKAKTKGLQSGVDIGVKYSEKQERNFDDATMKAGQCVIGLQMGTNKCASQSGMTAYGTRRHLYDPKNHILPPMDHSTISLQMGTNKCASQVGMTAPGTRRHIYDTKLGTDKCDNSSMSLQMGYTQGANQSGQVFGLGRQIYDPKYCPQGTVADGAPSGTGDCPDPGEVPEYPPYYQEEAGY
UniProt P20674, whole entry, looked up: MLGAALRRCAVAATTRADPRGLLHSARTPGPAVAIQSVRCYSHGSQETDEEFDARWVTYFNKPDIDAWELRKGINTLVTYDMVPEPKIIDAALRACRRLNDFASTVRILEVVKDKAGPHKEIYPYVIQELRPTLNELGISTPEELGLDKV
UniProt P35606: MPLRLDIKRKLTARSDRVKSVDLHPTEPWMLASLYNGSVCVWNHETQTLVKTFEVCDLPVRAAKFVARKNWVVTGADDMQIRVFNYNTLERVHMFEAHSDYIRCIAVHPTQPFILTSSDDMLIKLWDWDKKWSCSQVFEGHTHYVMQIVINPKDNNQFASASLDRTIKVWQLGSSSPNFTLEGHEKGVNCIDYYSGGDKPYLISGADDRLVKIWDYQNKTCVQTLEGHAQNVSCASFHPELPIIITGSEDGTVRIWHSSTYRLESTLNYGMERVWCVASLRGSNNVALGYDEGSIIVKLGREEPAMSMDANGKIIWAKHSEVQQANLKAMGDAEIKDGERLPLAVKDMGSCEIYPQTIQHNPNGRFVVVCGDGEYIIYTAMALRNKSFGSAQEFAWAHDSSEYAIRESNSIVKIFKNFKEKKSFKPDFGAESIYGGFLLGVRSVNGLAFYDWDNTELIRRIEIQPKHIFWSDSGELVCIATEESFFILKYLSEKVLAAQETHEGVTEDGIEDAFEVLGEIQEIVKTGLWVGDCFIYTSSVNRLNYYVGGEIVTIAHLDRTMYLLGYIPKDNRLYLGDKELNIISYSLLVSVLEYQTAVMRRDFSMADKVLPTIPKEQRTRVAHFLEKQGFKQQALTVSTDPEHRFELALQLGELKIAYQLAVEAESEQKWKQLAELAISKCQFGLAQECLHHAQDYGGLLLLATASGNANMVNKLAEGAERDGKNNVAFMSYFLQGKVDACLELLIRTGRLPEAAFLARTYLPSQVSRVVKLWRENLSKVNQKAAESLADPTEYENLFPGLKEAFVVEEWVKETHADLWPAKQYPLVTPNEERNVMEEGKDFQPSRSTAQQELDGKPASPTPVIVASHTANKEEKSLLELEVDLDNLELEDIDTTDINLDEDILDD
UniProt Q9Y6N1: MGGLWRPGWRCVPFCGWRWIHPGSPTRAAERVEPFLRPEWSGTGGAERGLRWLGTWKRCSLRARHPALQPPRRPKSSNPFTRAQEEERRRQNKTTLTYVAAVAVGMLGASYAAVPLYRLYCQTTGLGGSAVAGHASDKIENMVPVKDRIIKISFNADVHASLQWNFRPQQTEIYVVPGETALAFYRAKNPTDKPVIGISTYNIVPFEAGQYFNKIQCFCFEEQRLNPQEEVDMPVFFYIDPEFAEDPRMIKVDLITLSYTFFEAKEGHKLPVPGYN
UniProt Q96MW5: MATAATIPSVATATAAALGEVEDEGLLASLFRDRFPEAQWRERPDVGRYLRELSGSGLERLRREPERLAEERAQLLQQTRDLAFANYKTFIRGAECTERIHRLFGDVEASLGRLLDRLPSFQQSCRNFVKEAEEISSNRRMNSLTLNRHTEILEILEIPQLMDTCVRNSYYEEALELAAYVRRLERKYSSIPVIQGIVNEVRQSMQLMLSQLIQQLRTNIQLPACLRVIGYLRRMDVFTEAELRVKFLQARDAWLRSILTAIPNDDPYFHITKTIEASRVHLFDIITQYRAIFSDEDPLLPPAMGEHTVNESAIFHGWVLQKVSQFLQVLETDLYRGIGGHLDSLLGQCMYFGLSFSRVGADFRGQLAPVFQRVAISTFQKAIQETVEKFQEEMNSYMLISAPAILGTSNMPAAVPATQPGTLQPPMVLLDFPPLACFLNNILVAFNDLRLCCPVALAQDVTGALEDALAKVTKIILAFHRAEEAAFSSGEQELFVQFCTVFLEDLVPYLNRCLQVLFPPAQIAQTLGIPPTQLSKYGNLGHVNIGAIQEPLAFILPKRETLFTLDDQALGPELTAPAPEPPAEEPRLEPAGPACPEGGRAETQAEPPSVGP
UniProt Q10570: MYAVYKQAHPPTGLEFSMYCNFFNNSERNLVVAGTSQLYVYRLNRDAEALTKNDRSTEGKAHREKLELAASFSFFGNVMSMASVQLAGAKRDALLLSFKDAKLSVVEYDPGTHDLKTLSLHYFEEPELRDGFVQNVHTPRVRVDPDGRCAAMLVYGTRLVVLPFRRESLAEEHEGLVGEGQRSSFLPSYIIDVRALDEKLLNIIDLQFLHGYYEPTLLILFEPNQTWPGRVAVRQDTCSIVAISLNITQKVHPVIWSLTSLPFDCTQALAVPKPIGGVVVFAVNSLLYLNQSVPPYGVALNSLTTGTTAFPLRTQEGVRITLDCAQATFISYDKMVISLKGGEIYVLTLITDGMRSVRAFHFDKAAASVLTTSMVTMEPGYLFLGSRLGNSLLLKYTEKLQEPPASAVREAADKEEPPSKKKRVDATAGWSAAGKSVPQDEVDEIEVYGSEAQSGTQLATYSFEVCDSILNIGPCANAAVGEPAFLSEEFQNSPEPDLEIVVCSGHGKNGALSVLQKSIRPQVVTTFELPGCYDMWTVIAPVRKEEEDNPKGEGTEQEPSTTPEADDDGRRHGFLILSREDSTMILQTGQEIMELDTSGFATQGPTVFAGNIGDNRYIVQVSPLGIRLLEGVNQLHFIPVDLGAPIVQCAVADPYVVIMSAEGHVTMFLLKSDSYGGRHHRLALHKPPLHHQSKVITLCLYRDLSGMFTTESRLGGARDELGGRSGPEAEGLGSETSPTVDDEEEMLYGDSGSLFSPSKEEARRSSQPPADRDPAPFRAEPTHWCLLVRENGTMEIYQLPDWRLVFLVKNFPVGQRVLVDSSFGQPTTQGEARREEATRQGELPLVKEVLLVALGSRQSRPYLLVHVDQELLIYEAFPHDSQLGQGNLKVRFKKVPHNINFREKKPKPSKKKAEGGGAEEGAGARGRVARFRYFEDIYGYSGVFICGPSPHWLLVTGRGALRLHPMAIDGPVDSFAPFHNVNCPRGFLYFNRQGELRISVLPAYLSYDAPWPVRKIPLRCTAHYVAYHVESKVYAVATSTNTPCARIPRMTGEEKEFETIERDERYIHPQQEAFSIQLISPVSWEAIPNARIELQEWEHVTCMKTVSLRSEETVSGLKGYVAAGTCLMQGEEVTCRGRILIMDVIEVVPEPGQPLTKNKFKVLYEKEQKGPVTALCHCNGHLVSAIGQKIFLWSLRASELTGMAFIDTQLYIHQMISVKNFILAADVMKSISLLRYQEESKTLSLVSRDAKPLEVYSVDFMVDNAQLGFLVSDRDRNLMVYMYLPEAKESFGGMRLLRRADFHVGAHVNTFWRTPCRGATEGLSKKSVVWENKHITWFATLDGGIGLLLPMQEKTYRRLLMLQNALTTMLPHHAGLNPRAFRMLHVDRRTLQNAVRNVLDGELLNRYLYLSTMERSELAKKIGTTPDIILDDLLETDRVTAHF
UniProt Q7L5N1: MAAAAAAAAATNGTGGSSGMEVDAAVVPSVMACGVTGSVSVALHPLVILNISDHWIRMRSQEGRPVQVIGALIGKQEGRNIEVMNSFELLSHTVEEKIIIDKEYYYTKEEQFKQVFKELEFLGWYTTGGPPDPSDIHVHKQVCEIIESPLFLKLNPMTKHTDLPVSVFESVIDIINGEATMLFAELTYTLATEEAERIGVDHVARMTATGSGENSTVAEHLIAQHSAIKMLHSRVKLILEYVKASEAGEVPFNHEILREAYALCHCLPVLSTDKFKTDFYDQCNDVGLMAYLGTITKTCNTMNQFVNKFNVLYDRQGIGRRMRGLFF

How the values were obtained:
Test in all cases: log2 fold change, soluble protein after heating vs DMSO (PISA); higher = thermal stabilisation; K562 lysate, 10 uM; active = over 0.2 and 3.5 SD of the protein, either way, in both replicates (recomputed)
[1] = compound: C1=CC=C(C=C1)[C@H](COC2=CC3=C(C=C2)NC(=O)N3)NC(=O)C4=CC=CN(C4=O)CC5=CC(=C(C=C5)F)F
Method in brief: (§1)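 K562 pellets were dounce-homogenised in PBS pH 7.4 containing 1 mM MgCl2, and the crude extract, at 1 mg/mL protein, was exposed to 10 μM compound for 30 min. Aliquots were heated for 3 min across 48°C-58°C, pooled, brought to 0.5% NP-40 at 4°C and spun at 21,000xg for 90 min, with the supernatant taken as soluble protein. TMTpro 16plex LC-MS/MS with equalised channel sums quantified that protein. Values are log-two fold changes in thermal stability relative to solvent controls, taken from duplicates.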

[2] = compound: CC1=C(SC2=C1C(=N[C@H](C3=NN=C(N32)C)CC(=O)N)C4=CC=C(C=C4)Cl)C
Method in brief: as §1

[3] = compound: CC1=C2C(=CC=C1)N=C(N(C2=O)C3=CC=CC=C3C)CN4C=NC5=C(N=CN=C54)N
Method in brief: as §1

[4] = compound: Cc1sc2c(c1C)C(c1ccc(Cl)cc1)=N[C@@H](CC(=O)OC(C)(C)C)c1nnc(C)n1-2
Method in brief: as §1

[5] = compound: c1ccc([C@@H]2C[C@H]2NC2CCNCC2)cc1
Method in brief: as §1

Measured: log2 fold change

CNNM4 (UniProt Q6P4Q7)
inactive: [1] 0.065 | [2] 0.134 | [3] 0.052 | [4] 0.009 | [5] -0.037

COQ7 (UniProt Q99807)
inactive: [1] 0.024 | [2] -0.014 | [3] 0.025 | [4] -0.052 | [5] 0.017

COA4 isoform 2 (UniProt Q9NYJ1)
inactive: [1] -0.06 | [2] -0.017 | [3] -0.051 | [4] -0.06 | [5] 0.132

CNNM3 (UniProt Q8NE01)
inactive: [1] 0 | [2] 0.067 | [3] 0.051 | [4] 0.02 | [5] 0.023

COG7 (UniProt P83436)
inactive: [1] -0.026 | [2] 0.026 | [3] 0.01 | [4] -0.034 | [5] 0.012

CPT2 (UniProt P23786)
inactive: [1] -0.148 | [2] 0.033 | [3] -0.007 | [4] 0.011 | [5] -0.047

COA5 (UniProt Q86WW8)
inactive: [1] 0.02 | [2] 0.035 | [3] 0.152 | [4] -0.012 | [5] 0.033

CNST (UniProt Q6PJW8)
inactive: [1] 0.041 | [2] 0.019 | [3] -0.018 | [4] 0.004 | [5] -0.031

COX6A1 (UniProt P12074)
inactive: [1] 0.097 | [2] -0.002 | [3] -0.06 | [4] -0.014 | [5] -0.048

CNOT6L (UniProt Q96LI5)
inactive: [1] -0.014 | [2] 0.017 | [3] -0.013 | [4] -0.049 | [5] -0.164

COMMD8 (UniProt Q9NX08)
inactive: [1] 0.054 | [2] -0.016 | [3] 0.112 | [4] -0.015 | [5] 0.097

COX20 isoform 2 (UniProt Q5RI15)
inactive: [1] 0.01 | [2] -0.047 | [3] -0.092 | [4] 0.001 | [5] 0.23

CNBP isoform 4 (UniProt P62633)
inactive: [1] 0.065 | [2] -0.031 | [3] -0.009 | [4] -0.035 | [5] -0.002

CNOT11 (UniProt Q9UKZ1)
inactive: [1] 0.005 | [2] -0.097 | [3] 0.008 | [4] 0.001 | [5] -0.033

COQ8A (UniProt Q8NI60)
inactive: [1] 0.048 | [2] 0.065 | [3] 0.03 | [4] 0.007 | [5] 0

COPS7B isoform 3 (UniProt Q9H9Q2)
inactive: [1] 0.032 | [2] -0.004 | [3] 0.012 | [4] -0.019 | [5] -0.154

CNOT4 isoform 6 (UniProt O95628)
inactive: [1] -0.042 | [2] -0.02 | [3] -0.028 | [4] 0.051 | [5] -0.004

CPOX (UniProt P36551)
inactive: [1] 0.037 | [2] -0.019 | [3] -0.014 | [4] 0.034 | [5] -0.038

CNOT4 isoform 9 (UniProt O95628)
inactive: [1] -0.173 | [2] 0.081 | [3] -0.014 | [4] -0.066 | [5] -0.551

CPSF4 (UniProt O95639)
inactive: [1] -0.101 | [2] -0.018 | [3] 0.023 | [4] 0.039 | [5] 0.015

COPG1 (UniProt Q9Y678)
inactive: [1] -0.005 | [2] -0.004 | [3] 0.014 | [4] -0.011 | [5] 0.001

COPS8 (UniProt Q99627)
inactive: [1] -0.077 | [2] -0.047 | [3] 0.04 | [4] -0.033 | [5] 0.011

CNN2 (UniProt Q99439)
inactive: [1] 0.012 | [2] -0.047 | [3] -0.049 | [4] 0.051 | [5] -0.03

COPZ1 isoform 4 (UniProt P61923)
inactive: [1] -0.101 | [2] -0.04 | [3] 0.06 | [4] 0.057 | [5] 0.096

COCH (UniProt O43405)
inactive: [1] 0.037 | [2] 0.006 | [3] 0.02 | [4] -0.045 | [5] -0.067

COL14A1 (UniProt Q05707)
inactive: [1] -0.037 | [2] 0.298 | [3] -0.064 | [4] -0.049 | [5] -0.055

CPSF7 isoform 3 (UniProt Q8N684)
inactive: [1] -0.063 | [2] 0.045 | [3] -0.021 | [4] 0.03 | [5] 0.045

COLGALT1 (UniProt Q8NBJ5)
inactive: [1] 0.004 | [2] -0.024 | [3] 0.028 | [4] 0.003 | [5] 0.001

CNTRL (UniProt Q7Z7A1)
inactive: [1] 0.047 | [2] 0.018 | [3] 0.009 | [4] 0.021 | [5] -0.069

COG3 (UniProt Q96JB2)
inactive: [1] -0.03 | [2] -0.015 | [3] 0.016 | [4] 0.033 | [5] 0.019

COA1 (UniProt Q9GZY4)
inactive: [1] 0.001 | [2] 0.026 | [3] 0.033 | [4] -0.054 | [5] -0.003

COMT (UniProt P21964)
inactive: [1] -0.007 | [2] -0.01 | [3] -0.016 | [4] 0.062 | [5] 0.054

COMMD3 (UniProt Q9UBI1)
inactive: [1] -0.055 | [2] -0.023 | [3] 0.048 | [4] 0.002 | [5] 0.051

COX5A (UniProt P20674)
inactive: [1] 0.065 | [2] -0.03 | [3] -0.006 | [4] -0.017 | [5] 0.164

COPB2 (UniProt P35606)
inactive: [1] -0.018 | [2] 0.004 | [3] -0.019 | [4] -0.013 | [5] -0.025

CPT1A (UniProt P50416)
inactive: [1] 0.042 | [2] 0.03 | [3] -0.004 | [4] 0.07 | [5] 0.011

COX11 (UniProt Q9Y6N1)
inactive: [1] 0.007 | [2] 0 | [3] -0.005 | [4] 0.005 | [5] 0.056

CNOT10 (UniProt Q9H9A5)
inactive: [1] -0.013 | [2] 0.023 | [3] 0.08 | [4] -0.048 | [5] 0.003

COMMD5 (UniProt Q9GZQ3)
inactive: [1] 0.001 | [2] -0.004 | [3] 0.065 | [4] -0.017 | [5] 0.013

COG8 (UniProt Q96MW5)
inactive: [1] -0.08 | [2] 0.004 | [3] -0.063 | [4] -0.019 | [5] 0.056

CPSF1 (UniProt Q10570)
inactive: [1] -0.036 | [2] 0.001 | [3] 0.024 | [4] -0.014 | [5] 0.003

COPG2 (UniProt Q9UBF2)
inactive: [1] -0.025 | [2] 0.014 | [3] 0.008 | [4] 0.005 | [5] 0.022

COPRS (UniProt Q9NQ92)
inactive: [1] -0.007 | [2] -0.026 | [3] 0.012 | [4] -0.137 | [5] -0.063

CPQ (UniProt Q9Y646)
inactive: [1] 0.025 | [2] 0.066 | [3] 0.05 | [4] -0.03 | [5] 0.01

COASY isoform 2 (UniProt Q13057)
inactive: [1] -0.049 | [2] -0.002 | [3] 0.03 | [4] 0.07 | [5] 0.01

COPE (UniProt O14579)
inactive: [1] -0.021 | [2] -0.051 | [3] -0.001 | [4] -0.05 | [5] -0.084

CNN1 (UniProt P51911)
inactive: [1] 0.019 | [2] -0.005 | [3] -0.019 | [4] -0.008 | [5] -0.02

CPVL (UniProt Q9H3G5)
inactive: [1] -0.048 | [2] -0.029 | [3] 0.001 | [4] -0.293 | [5] -0.107

CPSF6 isoform 2 (UniProt Q16630)
inactive: [1] -0.012 | [2] 0.007 | [3] -0.029 | [4] 0.011 | [5] 0.069

COPS6 (UniProt Q7L5N1)
inactive: [1] -0.091 | [2] -0.087 | [3] -0.039 | [4] 0.053 | [5] 0.025

Eleven successive records out of the list so far, quoted:
COA5 (UniProt Q86WW8)
inactive: [1] 0.02 | [2] 0.035 | [3] 0.152 | [4] -0.012 | [5] 0.033

CNST (UniProt Q6PJW8)
inactive: [1] 0.041 | [2] 0.019 | [3] -0.018 | [4] 0.004 | [5] -0.031

COX6A1 (UniProt P12074)
inactive: [1] 0.097 | [2] -0.002 | [3] -0.06 | [4] -0.014 | [5] -0.048

CNOT6L (UniProt Q96LI5)
inactive: [1] -0.014 | [2] 0.017 | [3] -0.013 | [4] -0.049 | [5] -0.164

COMMD8 (UniProt Q9NX08)
inactive: [1] 0.054 | [2] -0.016 | [3] 0.112 | [4] -0.015 | [5] 0.097

COX20 isoform 2 (UniProt Q5RI15)
inactive: [1] 0.01 | [2] -0.047 | [3] -0.092 | [4] 0.001 | [5] 0.23

CNBP isoform 4 (UniProt P62633)
inactive: [1] 0.065 | [2] -0.031 | [3] -0.009 | [4] -0.035 | [5] -0.002

CNOT11 (UniProt Q9UKZ1)
inactive: [1] 0.005 | [2] -0.097 | [3] 0.008 | [4] 0.001 | [5] -0.033

COQ8A (UniProt Q8NI60)
inactive: [1] 0.048 | [2] 0.065 | [3] 0.03 | [4] 0.007 | [5] 0

COPS7B isoform 3 (UniProt Q9H9Q2)
inactive: [1] 0.032 | [2] -0.004 | [3] 0.012 | [4] -0.019 | [5] -0.154

CNOT4 isoform 6 (UniProt O95628)
inactive: [1] -0.042 | [2] -0.02 | [3] -0.028 | [4] 0.051 | [5] -0.004

(further entries)

COX18 (UniProt Q8N8Q8)
inactive: [1] -0.029 | [2] 0.024 | [3] -0.041 | [4] -0.015 | [5] 0.024

COX15 (UniProt Q7KZN9)
inactive: [1] -0.001 | [2] 0.005 | [3] -0.024 | [4] -0.014 | [5] -0.089

COX4I1 (UniProt P13073)
inactive: [1] -0.036 | [2] 0.022 | [3] -0.019 | [4] -0.015 | [5] -0.022
